Results are given in words; binding and its absence hold for the method and conditions named. In cells and extracts the contact can be indirect. Where a sequence is shown, tags or fusion partners need not be part of it.

Sequences of proteins named here, by UniProt entry; tags and fusion partners are left off. A change or cut given only in a name is not applied to a line headed by its entry.
UniProt Q16620: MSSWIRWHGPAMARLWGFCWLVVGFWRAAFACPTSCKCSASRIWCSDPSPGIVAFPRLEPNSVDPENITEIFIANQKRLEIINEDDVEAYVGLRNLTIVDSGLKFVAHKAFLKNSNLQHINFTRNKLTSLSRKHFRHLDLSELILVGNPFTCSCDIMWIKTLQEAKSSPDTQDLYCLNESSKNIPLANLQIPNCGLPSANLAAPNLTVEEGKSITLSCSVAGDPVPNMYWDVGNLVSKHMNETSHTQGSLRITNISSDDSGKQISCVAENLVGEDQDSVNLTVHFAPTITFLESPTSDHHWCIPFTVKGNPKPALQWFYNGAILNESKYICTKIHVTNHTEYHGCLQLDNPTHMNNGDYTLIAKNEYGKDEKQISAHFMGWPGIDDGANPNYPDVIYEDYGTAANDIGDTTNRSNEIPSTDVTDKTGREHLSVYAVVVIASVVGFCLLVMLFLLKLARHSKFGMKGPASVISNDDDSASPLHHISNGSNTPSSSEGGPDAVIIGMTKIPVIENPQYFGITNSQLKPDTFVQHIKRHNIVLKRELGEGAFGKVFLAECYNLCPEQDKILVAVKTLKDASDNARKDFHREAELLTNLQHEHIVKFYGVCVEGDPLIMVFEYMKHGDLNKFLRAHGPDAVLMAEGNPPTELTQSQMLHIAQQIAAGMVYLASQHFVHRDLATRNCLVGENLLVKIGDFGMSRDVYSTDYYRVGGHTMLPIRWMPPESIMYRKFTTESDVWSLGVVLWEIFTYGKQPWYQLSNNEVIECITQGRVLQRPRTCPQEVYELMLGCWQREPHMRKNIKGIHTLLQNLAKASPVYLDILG

In the experiment the target is Flag-tagged TrkB lacking the IgG2/d5 domain (TrkB-Δd5) (human) (UniProt Q16620). As to the kind of experiment: co-IP; HEK293T cells co-transfected with Flag-tagged TrkB constructs and GFP-tagged MDGA2 constructs; lysates IP with control IgG, anti-Flag or anti-GFP, immunoblot.

B1: GFP-tagged full-length human MDGA2 (MDGA2-GFP) (protein, UniProt Q7Z553 26-931)
chain: PPTVRIVHSGLACNIEEERYSERVYTIREGETLELTCLVTGHPRPQIRWTKTAGSASDRFQDSSVFNETLRITNIQRHQGGRYYCKAENGLGSPAIKSIRVDVYYLDDPVVTVHQSIGEAKEQFYYERTVFLRCVANSNPPVRYSWRRGQEVLLQGSDKGVEIYEPFFTQGETKILKLKNLRPQDYANYSCIASVRNVCNIPDKMVSFRLSNKTASPSIKLLVDDPIVVNPGEAITLVCVTTGGEPAPSLTWVRSFGTLPEKTVLNGGTLTIPAITSDDAGTYSCIANNNVGNPAKKSTNIIVRALKKGRFWITPDPYHKDDNIQIGREVKISCQVEAVPSEELTFSWFKNGRPLRSSERMVITQTDPDVSPGTTNLDIIDLKFTDFGTYTCVASLKGGGISDISIDVNISSSTVPPNLTVPQEKSPLVTREGDTIELQCQVTGKPKPIILWSRADKEVAMPDGSMQMESYDGTLRIVNVSREMSGMYRCQTSQYNGFNVKPREALVQLIVQYPPAVEPAFLEIRQGQDRSVTMSCRVLRAYPIRVLTYEWRLGNKLLRTGQFDSQEYTEYAVKSLSNENYGVYNCSIINEAGAGRCSFLVTGKAYAPEFYYDTYNPVWQNRHRVYSYSLQWTQMNPDAVDRIVAYRLGIRQAGQQRWWEQEIKINGNIQKGELITYNLTELIKPEAYEVRLTPLTKFGEGDSTIRVIKYSAPVNPHLREFHCGFEDGNICLFTQDDTDNFDWTKQSTATRNTKYTPNTGPNADRSGSKEGFYMYIETSRPRLEGEKARLLSPVFSIAPKNPYGPTNTAYCFSFFYHMYGQHIGVLNVYLRLKGQTTIENPLWSSSGNKGQRWNEAHVNIYPITSFQLIFEGIRGPGIEGDIAIDDVSIAEGECAKQDLATKNSVD
Consider B1, for which the binding entry is recorded as “no binding”.

The values above are taken from article PMC11960969, “Mdga2 deficiency leads to an aberrant activation of BDNF/TrkB signaling that underlies autism-relevant synaptic and behavioral changes in mice” (PLOS Biology, 2025).
